From paper PMC10782996

Columns and labels:
Experiment in all cases: EMSA
[1] = system: Spo0A (Paenibacillus polymyxa SC2); conditions: EMSA: Beyotime chemiluminescent EMSA kit buffer (composition and pH not stated), 10 uL, 20 min at room temperature, native PAGE in 0.5x TBE, 70 V for 70 min, recombinant protein, residues 1-267, label: 5'-biotin on forward strand, probe letters rebuilt from the primers and the genome
[2] = system: T1, Abh (Paenibacillus polymyxa SC2); conditions: EMSA: Beyotime chemiluminescent EMSA kit buffer (composition and pH not stated), 10 uL, 20 min at room temperature, native PAGE in 0.5x TBE, 70 V for 70 min, recombinant protein, residues 1-154, label: 5'-biotin on forward strand, probe letters rebuilt from the primers and the genome
T1 sequence (looked up): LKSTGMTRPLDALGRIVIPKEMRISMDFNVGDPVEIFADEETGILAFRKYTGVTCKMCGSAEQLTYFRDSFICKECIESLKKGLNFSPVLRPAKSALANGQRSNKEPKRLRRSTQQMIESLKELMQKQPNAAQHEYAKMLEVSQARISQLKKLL

[3] = system: T2, AbrB3 (Paenibacillus polymyxa SC2); conditions: EMSA: Beyotime chemiluminescent EMSA kit buffer (composition and pH not stated), 10 uL, 20 min at room temperature, native PAGE in 0.5x TBE, 70 V for 70 min, recombinant protein, residues 1-84, label: 5'-biotin on forward strand, probe letters rebuilt from the primers and the genome
T2 sequence (looked up): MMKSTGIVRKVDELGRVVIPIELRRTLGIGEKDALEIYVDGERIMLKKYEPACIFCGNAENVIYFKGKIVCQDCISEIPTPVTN

Measured: binding result

AGACTGTCCCGTTCATGCCATACGGAGCATTCTTTGAGCCTCATGCAGACCCATCGTCACATCTAATCGTCAGGAAAAGCTCACTACCCCGCAGCCGTATCTTTACTTATCCACACCAGACGGGGGAATACACAAATCGTACATAGAGTGTATCAATATCCCTTAAACATAGGCTTCGACAAAGGCAGCTCCGGTGCCGAATCTGGAGGTACGGCCGACTTCCTGCTGGCCGGCCGGAACCCTACAGCAAGCCTTACATCGATGGGAGGAACATCCCTTGTCCACCCCCAAATCCAATTCCAAACCCAATGTTAAACCAAAGCCCGTCTTCGGGCGGCTCGTCCGCAGCAAGCATATTTAAGCACCCGCATCTCTTGCGTAGAACGATGCTCTTAGTTGTCTTTCACGCATAGCAGCCGAGCGGGACAGCTGCTAGGCAGAGGATTGCCGCATGCGATCAACCGGGCAAGCGAAGCGGTGACCTGGCGAAAGCCATTGACATTATTGTCAC (double strand) [Ppmx]
binds: [1]; 0-2.67 uM protein, 7.4 nM DNA | [2]; 0-6.8 uM protein, 7.4 nM DNA | [3]; 0-12.7 uM protein, 7.4 nM DNA

GATATCAGCTCCTTTAATATTCGGAATAATGGATTAAAATACAATAAAATCCTAAACATCTTCCCTTATTCGACACCGTTTGTCGTATTTTGTCGAATTATCACTTTTCGACATTTCCAAATCTACAATAAGACAAATCATCCGTAAAATAAGGTAAGGTACATGGATAAAGCTCTTTGTTCTAAATACTTTTGCATAATTAGGCTGTTACTACTTTTTTTAGGTTGACTGTTTTGGGAATCGTTGGTATAGTAAATATCAGAAAAGAGAAAATTTTGTCGAATCATGACACTTATATTATTTTAAACGGCGAGAGGAGCCTGATTTATT (double strand) [PabrB3]
binds: [1] | [2] | [3]; 0-6.3 uM protein, 11.5 nM DNA

For part of these data: Protein sequences can lack the tags named with them.
